From patent US20240343803A1 come the findings set out here.

No constants are given. Whether binding was seen depends on the method and setting. Some results given as binding are weak or reduced against the parent protein; the word gives no strength. For some of these results: Tags and fused reporters may be left off the sequences shown.

Experiment [1] addresses cynomolgus monkey PVRIG (Novoprotein, Cat NO. C09B) (cynomolgus monkey). The experiment in a line: ELISA. A general note: In an ELISA, binding on a coated surface is turned into a signal by an enzyme label.
Experiment [2] addresses TIGIT on human PBMCs stimulated by SEA (human) (UniProt Q495A1). The experiment can be described thus: flow cytometry on human PBMCs stimulated by SEA (summary of Example 8). For orientation: In flow cytometry, cells or beads pass a laser one at a time.
The target of experiment [3] is cynomolgus monkey TIGIT ECD-mFc (extracellular domain of cynomolgus monkey TIGIT and mouse IgG2a Fc fragment) (cynomolgus monkey). The experiment in a line: summary of ELISA and FACS on cynomolgus monkey TIGIT.
Experiment [4] deals with T1, human TIGIT ECD-his (fusion protein of extracellular domain of human TIGIT and His-tag) (human).
T1 sequence: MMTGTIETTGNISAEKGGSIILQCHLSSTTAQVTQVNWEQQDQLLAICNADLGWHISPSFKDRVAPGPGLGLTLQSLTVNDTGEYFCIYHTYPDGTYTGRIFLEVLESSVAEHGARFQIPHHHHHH
The experiment can be described thus: BIAcore, ELISA, FACS (summary of Table 18). A general note: SPR reads the build-up and loss of mass on a sensor chip optically.

Experiment [5] has as its target human TIGIT ECD-mFc (fusion protein of extracellular domain of human TIGIT and mouse IgG2a Fc fragment) (human). The experiment in a line: ELISA.
Experiment [6] addresses cynomolgus monkey TIGIT ECD-mFc (extracellular domain of cynomolgus monkey TIGIT and mouse IgG2a Fc fragment) (cynomolgus monkey). The experiment can be described thus: ELISA.
Experiment [7] addresses full-length human TIGIT on CHO-K1 cells (CHO-K1 human TIGIT) (human) (UniProt Q495A1). The experiment can be described thus: FACS; cells with high, medium and low expression of human TIGIT.
Experiment [8] has the same target. The experiment can be described thus: FACS; high, medium and low expression strains.
Experiment [9] has as its target cynomolgus monkey PVRIG (Novoprotein, Cat NO. C09B) (cynomolgus monkey). The experiment can be described thus: ELISA, coated cynomolgus monkey PVRIG.

B1: PVRIG-A117 (VHH, not shown: a dimerising Fc or GST)
VHH: EVQVVESGGGLVQAGGSLRLSCTASEHIYDLYIMGWYRQAPGKDRELVATITYTGSIYIADSVKDRFTISRGNAKNTVSLQMSGLKPEDTAVYYCNADPSGLGRKLYWGQGTQVTVSS
B1: the binding entry in experiment [1] is “binds”.

B2: PVRIG-A75 (VHH, not shown: a dimerising Fc or GST)
VHH: QLQLVESGGGLVQSGGSLRLSCAASGRTRSMYVMGWFRQAPGKEREFVGRIKWSGDTTYTSYADFVKGRFTLYGNQARNTVYLQMNSLKPEDTAVYSCAASKFPVSGVPEHYDYWGQGTQVTVSS
On to B2, for which the binding entry in [1] was “binds”.

B3: PVRIG-A50 (VHH, not shown: a dimerising Fc or GST)
VHH: EVQLVESGGGLVQPGGSLRLSCAASGFTFSYYDMSWVRQAPGKGLEWVSTINSNGGRTSYVDSVKGRFTISRDNTKNTLYLQMNSLKPEDTAVYYCVEGDPHNFGLENLSLRDFGSWGQGTQVTVSS
On to B3, for which the binding result in [1] is reported as “binds”.

B4: PVRIG-A118 (VHH, not shown: a dimerising Fc or GST)
VHH: QVQLVESGGGLVQAGGSLRLSCAASETYFDLYVMGWYRQAPGKDRELVATITYTGSIKIVDSVKDRFTISRGDAKNTVSLQMSSLKPEDTAVYFCNADPSGLGRKVYWGQGTQVTVSS
As for B4, the binding entry in [1] is given as “binds”.

B5: TIGIT-006-H5L3 (antibody, V domains shown)
VH: EVQLQESGPGLVKPSETLSLTCAVSGYSMTSDYWNWIRQPPGKKLEYIGYISYSGRTYYNPSLKSRVTISRDTSKNQFSLKLSSVTAADTAVYYCARGDYSNYGGAMYDWGQGTTVTVSS
VL: DIVMTQSPDSLAVSLGERATINCRASQGVSTTIAWYQQKPGQSPKLLIYSASYRYTGVPRFSGSGSGTDFTLTISSLQAEDVAVYYCQQYYSSPFTFGGGTKVEIK
Take B5: the binding result in experiment [2], in experiment [3], in [4], in experiment [5], in experiment [6] and in experiment [7] was “binds” throughout. Also, in [8], the binding entry is “binds”.

B6: PVRIG-A43 (VHH, not shown: a dimerising Fc or GST)
VHH: QVQLVESGGGLVQSGGSLRLSCAASGRTRSMYVMGWFRQAPGKEREFVGRIKWSGDTTYTSYADFVKGRFTLYGNQARNTVYLQMNSLKVEDTAVYYCAGRVVPLPSRQRDRYDYWGQGTQVTVSS
In the case of B6, the binding result in experiment [1] is listed as “binds”.

B7: SRF813-hIgG1 (antibody, V domains shown)
VH: QVQLVQSGAEVKKPGSSVKVSCKASGGTFSSAAISWVRQAPGQGLEWMGNIIPIVGIANYAQKFQGRVTITADESTSTAYMELSSLRSEDTAVYYCARDTGRGYTRHFWFDPWGQGTLVTVSS
VL: DIQMTQSPSSLSASVGDRVTITCRASQSISSYLNWYQQKPGKAPKLLIYAASSLQSGVPSRFSGSGSGTDFTLTISSLQPEDFATYYCQQSDILYTFGGGTKVEIK
Regarding B7, in [9], the binding entry is recorded as “binds”.

B8: PVRIG-A11 (VHH, not shown: a dimerising Fc or GST)
VHH: QLQLVESGGGLVQPGGSLRLSCAASGFTDDYYAIGWFRQAPGKEREGVSCISGSGGSTNYEDSVKGRFAISRDNAKNMVYLQMNDLKPEDTAVYYCAADPFWSAPCTGHNDRYFDVWGQGTLVTVSS
B8: the binding entry in [1] is on record as “binds”.

B9: PVRIG-A113 (VHH, not shown: a dimerising Fc or GST)
VHH: QLQLVESGGGLVQSGGSLRLSCAASGRTRSMYVMGWFRQAPGKEREFVGRIKWSGDTTYTSYADFVKGRFTLYGNQARNTVYLQMNSLKPEDTAVYYCAALPSDYDYRAASYGVDYWGKGTLVTVSS
In the case of B9, the binding entry in experiment [1] was “binds”.

B10: COM701-hIgG4 (antibody, V domains shown)
VH: QVQLVQSGAEVKKPGASVKVSCKASGYTFTDYNINWVRQAPGQGLEWMGYIYPYIGGSGYAQKFQGRVTMTRDTSTSTVYMELSSLRSEDTAVYYCAREDKTARNAMDYWGQGTLVTVSS
VL: DIQMTQSPSSLSASVGDRVTITCRVSENIYSNLAWYQQKPGKAPKLLIYEATNLAEGVPSRFSGSGSGTDFTLTISSLQPEDFATYYCQHFWGTPYTFGQGTKLEIK
For B10, the binding entry in experiment [9] is “binds”.

B11: COM701-hIgG1 (antibody, V domains shown)
VH: QVQLVQSGAEVKKPGASVKVSCKASGYTFTDYNINWVRQAPGQGLEWMGYIYPYIGGSGYAQKFQGRVTMTRDTSTSTVYMELSSLRSEDTAVYYCAREDKTARNAMDYWGQGTLVTVSS
VL: DIQMTQSPSSLSASVGDRVTITCRVSENIYSNLAWYQQKPGKAPKLLIYEATNLAEGVPSRFSGSGSGTDFTLTISSLQPEDFATYYCQHFWGTPYTFGQGTKLEIK
For the molecule B11, in experiment [9], the binding entry was “binds”.

B12: PVRIG-A105 (VHH, not shown: a dimerising Fc or GST)
VHH: EVQLVESGGGLVQAGGSLRLSCAASGRTFDRHTMTWFRQAPGKEREFVATASRIPGDTYYSHSVKGRFTISRDNAKNTVYLQLNNLKPEDTAVYYCAATSAYCSEVDCYEKGSWYDNWGQGIQVTVSS
Take B12: the binding result in experiment [1] is “binds”.

B13: PVRIG-A15 (VHH, not shown: a dimerising Fc or GST)
VHH: QVQLVESGGGLVQAGGSLRLSCVASGRTFSANTMAWFRQAPGKEREFVAYTRWTDDNTDYASYADFVKGRFTAFRDNTRNTMYLQMNRLRPEDTAVYYCAAATTRGTYYSAGDYNSWGQGTQVTVSS
B13: the binding entry in [1] is recorded as “binds”.
